Results taken from patent US20220169740A1.
Residue numbers refer to the chain shown, from its start. Results are given in words; binding and its absence hold for the method and conditions named. Binding can be weak; no strength is given. Sequences can lack the tags named with a protein. Blank lines part the entries; values can stand above or below the binder they belong to.

Columns and labels:
[1] = molecular target: canine FcRn with a poly-His tag / canine B2M heterodimer complex (canine); test: SPR (Biacore) sensorgram, FIG. 6
[2] = molecular target: canine FcRn with a poly-His tag / canine B2M heterodimer complex (canine); test: off-rate screen at pH 6; SASA-tagged Fc from E. coli culture media captured on immobilised BSA (plate or Biacore chip), soluble canine FcRn/B2M complex
[3] = molecular target: canine FcRn with a poly-His tag / canine B2M heterodimer complex (canine); test: SPR (Biacore) sensorgram, FIG. 5
[4] = molecular target: canine FcRn with a poly-His tag / canine B2M heterodimer complex (canine); test: SPR (Biacore) sensorgram, FIG. 8
[5] = molecular target: canine FcRn with a poly-His tag / canine B2M heterodimer complex (canine); test: SPR (Biacore) sensorgram, FIG. 7

B1: variant canine IgG-B Fc polypeptide L(23)Y (protein, not shown: small tags and cut ends)
chain: PAPEMLGGPSVFIFPPKPKDTLYIARTPEVTCVVVDLDPEDPEVQISWFVDGKQMQTAKTQPREEQFNGTYRVVSVLPIGHQDWLKGKQFTCKVNNKALPSPIERTISKARGQAHQPSVYVLPPSREELSKNTVSLTCLIKDFFPPDIDVEWQSNGQQEPESKYRTTPPQLDEDGSYFLYSKLSVDKSRWQRGDTFICAVMHEALHNHYTQESLSHSPGK
binding [1]: binds | binding [2]: binds

B3: variant canine IgG-B Fc polypeptide L(23)M (protein, not shown: small tags and cut ends)
chain: B1 chain with Y23M
binding [4]: binds | binding [2]: binds

B5: variant canine IgG-B Fc polypeptide L(23)F (protein, not shown: small tags and cut ends)
chain: B1 chain with Y23F
binding [2]: binds | binding [5]: binds

Other lines, results leading:

binding [3]: binds
B2: wild-type canine IgG-B Fc polypeptide (protein, not shown: small tags and cut ends)
chain: B1 chain with Y23L

binding [2]: binds
B4: variant canine IgG-B polypeptide L(23)S (protein, not shown: small tags and cut ends)
chain: B1 chain with Y23S
